Test results as given in the supplement of paper PMC5949888.
± gives the standard deviation of the averaged measurements. Most values lie at the floor of the assay. Slopes are relative: functional sequences can read slightly below zero.

Tested on: Saccharomyces cerevisiae PS128 hsf1 delta, HSF1(1-493) fusion
Assay: growth estimate (transactivation domain function in HSF1 fusion, heat-shock survival) (a.u. (slope of normalised read count over time)); higher = stronger growth at 37°C, i.e. more transactivation activity
Conditions: library: random library
Procedure: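 Random 60-nt DNA library encoding peptides of up to 20 aa, fused to the C-terminus of yeast HSF1 residues 1-493 (C-terminal TAD deleted) and expressed from the native HSF1 promoter on a CEN plasmid in hsf1-deleted S. cerevisiae PS128. Cells were selected at 37°C on -trp 5-FOA plates for 0, 2, 4, 6 and 8 days and amplicons were sequenced. Growth estimate is the slope of a robust linear fit of total-sum-normalised read counts (normalised to the first time point) over time, using at least 2 replicates. Sequences are classed functional (TAD activity) above a threshold of -0.13, set from stop-codon control sequences.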

Row | Substance | growth estimate
1 | ELGDAIKSVYRAADPVYLGR | < -0.25
2 | GLRTDLREGSPASATDGSGN | < -0.25
3 | VKRGAHWSSGRLKCGL | < -0.25
4 | LLFYIRRRRWLAKRRE | < -0.25
5 | LLWDA | < -0.25
6 | VKYTHVDICLLLSASRNLR | < -0.25
7 | LATIF | < -0.25
8 | GHFAALVLRHMGPPELLRQG | < -0.25
9 | LAKGGRCYCVGPSWLETCST | < -0.25
10 | RLSLRFLRVTSKPDRSL | < -0.25
11 | VGGLETCASLPTSGTHYVLR | -0.0944
12 | QPSRTKWSLGVSWLEMTECP | -0.231
13 | GWRVGGTCIGKRIRRSSSEP | < -0.25
14 | PSWTVRPLA | < -0.25
15 | PTSPTQNGVCRAHFCRENAL | -0.246
16 | TWGLEPLV | < -0.25
17 | HFGSLSRGFLSKDFPIRLF | < -0.25
18 | REFDRDRVAAVMIRVQPRAP | < -0.25
19 | CTCGGLVRLGDKIKARN | < -0.25
20 | SLVFGPWW | < -0.25
21 | WAVPEPLIATARSLLADPSG | -0.208
22 | ALLGSRRDLYVPHVSPVISR | < -0.25
23 | FLRAYAGL | < -0.25
24 | STGIGCEYASLIVVVQLSWK | < -0.25
25 | SRPYAFYRY | < -0.25

Row | Substance | growth estimate
26 | SVQQDNTQGAQRRRALGAPL | < -0.25
27 | VNNIEP | < -0.25
28 | TSTSNTNA | < -0.25
29 | RASGSELNLFVYSGRRRSTL | < -0.25
30 | GIL | < -0.25
31 | FIFWRLPGHRKGRPGGALNL | < -0.25
32 | VGWEQVTFTLTLSCLEYANM | < -0.25
33 | RMALEALFGNLFFGR | < -0.25
34 | MELKDFGENAQGLSPIGKSY | < -0.25
35 | SVRWYPSCPGVSSSMSRHLS | < -0.25
36 | TLRVGVLILG | < -0.25
37 | VRMIPRPQSEY | < -0.25
38 | TTSEHHPQVRVCPHVLSEQF | < -0.25
39 | GQITFKAGRSESCRGCDDMG | < -0.25
40 | QRTTSALRGPLGQHRSHSRF | < -0.25
41 | SIYRSPLDGTT | < -0.25
42 | AVYRAG | < -0.25
43 | NPSLKSHRRSWNMGFVVQRG | < -0.25
44 | AYGLGGQEIYTAAVRRSKSA | < -0.25
45 | GVIARCSRGGGSLDDDTPNS | -0.25
46 | MTLRILRSLRGLRCTGIIIH | < -0.25
47 | VGRRARLPGVVSLRVALIMA | < -0.25
48 | GLNRKPTQIFTLRLEVFRAG | < -0.25
49 | CSVKWSCRASVWTWAKRAEA | < -0.25
50 | VSTCSPI | < -0.25

Row | Substance | growth estimate
51 | LNPHMVL | < -0.25
52 | PGHNYRGVVSPRPIVRKMRA | < -0.25
53 | AEFRNA | < -0.25
54 | TRMREAAGHFPTDSLIVVTP | < -0.25
55 | AQVYP | < -0.25
56 | LGILGRGSSVPMWHLEGYSR | < -0.25
57 | TTTDGMQ | < -0.25
58 | VRIGKDMAHDDSGRTVLSFL | < -0.25
59 | PFSRDPRAMRPSRKVHAELG | < -0.25
60 | GGLGSLAYVEPILACYLAAS | < -0.25
61 | FVSFWVLVWNP | < -0.25
62 | QVLPVRTPAT | < -0.25
63 | RYEPRKSANLKLP | < -0.25
64 | IDHSRRARIPYYRAKDFS | < -0.25
65 | TIRFKNGHGRVPRYMGRKLW | -0.0781
66 | PHTFPCHLCLDWNPGAVAYT | < -0.25
67 | SFMLPA | < -0.25
68 | GCTAVGRESSKAEREMGGPR | < -0.25
69 | LMVLLYDTRRYRVLQPVS | < -0.25
70 | KPVTPIH | < -0.25
71 | GWANNRRDLQ | < -0.25
72 | TMGYLIQNAPRLTKWLR | < -0.25
73 | NFQTDWGVKGAI | 0.0112
74 | HSSLIWSPIGLQ | < -0.25
75 | FRIA | < -0.25

Taken from above:
Value of LMVLLYDTRRYRVLQPVS under growth estimate: < -0.25
Value of VGRRARLPGVVSLRVALIMA under growth estimate: < -0.25
Value of REFDRDRVAAVMIRVQPRAP under growth estimate: < -0.25
Value of NPSLKSHRRSWNMGFVVQRG under growth estimate: < -0.25
Value of NFQTDWGVKGAI under growth estimate: 0.0112
Value of AYGLGGQEIYTAAVRRSKSA under growth estimate: < -0.25

The list continues.

Row | Substance | growth estimate
76 | AGSDKARFYQ | < -0.25
77 | RYLCVGTCAREHRRSTLGR | < -0.25
78 | CCGVIPHDRGARRVGKCKTR | < -0.25
79 | SYGQTTEATARVWLKAMHSK | < -0.25
80 | RRNLG | < -0.25
81 | PQITCRRRVVCVQGAFWSGR | < -0.25
82 | RYNV | < -0.25
83 | RRCSDSPHAGARACRRRPYE | < -0.25
84 | RTCH | -0.245
85 | EPATLFRGSRPSDRPCSPQP | < -0.25
86 | PLIHQINARYLYHHNQEYRA | < -0.25
87 | GMWVQKFSELRKTLVSGNRS | < -0.25
88 | SVHAS | < -0.25
89 | ISI | -0.244 ± 0.0081
90 | RVSQDY | 1.45
91 | VGFKSGGPCWTAITSLPCSC | < -0.25
92 | SGT | < -0.25
93 | RRPMR | < -0.25
94 | ILDSRCGSLCM | < -0.25
95 | NAQGGVLFGRRAYHFESRRI | < -0.25
96 | VLNKSRLCV | < -0.25
97 | LCDGYPVDPARGGRGAVAPT | < -0.25
98 | TPSLVR | < -0.25
99 | YAVDHLRLLMCKSMREDVVR | < -0.25
100 | QGVYQVLNESARIDIRLQCL | < -0.25

Row | Substance | growth estimate
101 | SRRYPRPLMAAVPCGNNITG | < -0.25
102 | KWSFGICNVKSR | < -0.25
103 | SKATPW | < -0.25
104 | LSCLPFVDYYLVLQVFVHVL | < -0.25
105 | RRDEIATSQTME | < -0.25
106 | TICTVYLKPSIKEVGIERVK | < -0.25
107 | SVGP | -0.231
108 | MVLHTHLAEYLTHVYRCLMV | < -0.25
109 | WVV | < -0.25
110 | IAWASVESPGRN | < -0.25
111 | NARDSCTSG | < -0.25
112 | RAISQPSFKCVTLKDVVRSA | < -0.25
113 | KRLAGVAYASGSLSDTTIPG | < -0.25
114 | IPTYAPNSP | < -0.25
115 | YTSTAV | < -0.25
116 | DDNRRPLLPGG | < -0.25
117 | RVSPLGKVARSLCTRSARVG | < -0.25
118 | VIRA | < -0.25
119 | RIEGV | < -0.25
120 | IMQGEERW | < -0.25
121 | NEFGGDMPVSCSTAS | < -0.25
122 | MWLC | < -0.25
123 | IFKLWVSSGVILYFSRR | < -0.25
124 | LQYPRGEPFLLLR | < -0.25
125 | NNRLGPNGSAATKWTG | < -0.25

Row | Substance | growth estimate
126 | RDISLAPS | < -0.25
127 | LNRGVKPRSLSNGVRTCDGR | < -0.25
128 | RGVQRLWIARSEEIIWSNRV | < -0.25
129 | GYWSRRLCVQSSKPLFHPLG | < -0.25
130 | SCPVRRTFRIF | < -0.25
131 | ELWDTMESQSSRAHGPRSNL | < -0.25
132 | SQHVNQRHLRARSLPWLHAH | < -0.25
133 | FSPWSRSPKPKIVTT | < -0.25
134 | ISGRPQN | < -0.25
135 | SMGDPGMEPMLGPGAHFDHK | < -0.25
136 | AHRQDSERQNLSTTKRGRPF | < -0.25
137 | YFDLRGALIHARFRFRGVFA | < -0.25
138 | QRGSGGDLSFSA | < -0.25
139 | WRVVESPSTVSDCGYILSPP | < -0.25
140 | GSNRTILQKHVVPVSTSIGQ | < -0.25
141 | GFRLTSGLARKPGDSSLRSG | -0.195
142 | GSSIIRSWALC | < -0.25
143 | DMYAYWSGTTLGLAS | < -0.25
144 | RIGSQLL | < -0.25
145 | SSLSW | < -0.25
146 | GYGITP | < -0.25
147 | SSRGIFIRIEVWIA | < -0.25
148 | GCVGYGV | < -0.25
149 | KYGYLRTSSSLVDTYLRGNG | < -0.25
150 | DCRAVLVEN | < -0.25

Row | Substance | growth estimate
151 | GVYNDG | < -0.25
152 | DNQLRLCEWPLPVL | < -0.25
153 | PQDKC | < -0.25
154 | NKARGQPPPW | < -0.25
155 | GHIWFQACCGRLLRANDIPQ | < -0.25
156 | CLLQ | -0.25
157 | FLLRV | < -0.25
158 | SSALHRGRLFGTLLGRVAGM | < -0.25
159 | TLAPFTKII | < -0.25
160 | VRSTRRGPKFA | < -0.25
161 | MTSCNTCHMSLSGQPAPSVS | 0.241
162 | KEDVSTNPFHSKDRRRSASH | < -0.25
163 | EPYVLRIQFLLARIHSCTGF | < -0.25
164 | LGYAQDVCPSPNVRYASLR | < -0.25
165 | ENRIGEAATSRNFFMRLQAI | < -0.25
166 | VEGTLESQAISSKRHDMPAA | < -0.25
167 | TASSARHQQRGSAGPDESAC | < -0.25
168 | LGS | < -0.25
169 | NVRNGRAIRVLWFRQALAGA | < -0.25
170 | YKYT | < -0.25
171 | LGSGRALA | < -0.25
172 | WEGACKSRMADVLSRPPCP | < -0.25
173 | LTGGARGHVKHDQEGRTAAA | < -0.25
174 | RWQFKGLR | < -0.25
175 | SVVRVTESESRVTQE | < -0.25

An excerpt of the results above, for reference:
Row | Substance | growth estimate
155 | GHIWFQACCGRLLRANDIPQ | < -0.25
156 | CLLQ | -0.25

Next entries:

Row | Substance | growth estimate
176 | ECWL | < -0.25
177 | VKWVHVDSLGDS | < -0.25
178 | PLGGSA | < -0.25
179 | EKYVRH | < -0.25
180 | RHRI | < -0.25
181 | FTNVSD | < -0.25
182 | KPCFSAACEVEPSSVVCYPV | < -0.25
183 | PNTLLPIRPLAPSTLSDGTT | < -0.25
184 | HHKLHDVGHA | < -0.25
185 | ERS | < -0.25
186 | PHWTMVRFSIYAWRDWFRAS | < -0.25
187 | SDRLFMD | < -0.25
188 | LIARPALITHR | < -0.25
189 | NGDAR | < -0.25
190 | LINL | < -0.25
191 | AVALSCCRKRPGDRCRHISS | < -0.25
192 | VQVNNGVCPVVHVPFITRFS | < -0.25
193 | AVVVTLRLLWLPWYIESMCA | < -0.25
194 | YKGLTVAVWRAGVLNKSGGG | < -0.25
195 | AYHAEGGTHV | < -0.25
